Measurements from patent publication US20110152352.
For part of these data: The comparison behind a weaker result is the experiment's own reference, which may not be listed here. For part of these data: At least one result comes from cells or an extract, where the contact may be indirect. For part of these data: A negative result means that nothing was seen under these conditions. For part of these data: Tags and fusion partners may be left off the protein sequences shown. For part of these data: Construct, isoform or probe ends are uncertain for at least one entry.

Chains of the proteins cited; added tags and fusions are not shown. Lines headed by an entry give the natural chain unless they say otherwise; changes in a name come on top. Chains listed by the source or under a name are the forms on record and can include a tag or linker. Residues count along the entry.
UniProt Q8WYQ5: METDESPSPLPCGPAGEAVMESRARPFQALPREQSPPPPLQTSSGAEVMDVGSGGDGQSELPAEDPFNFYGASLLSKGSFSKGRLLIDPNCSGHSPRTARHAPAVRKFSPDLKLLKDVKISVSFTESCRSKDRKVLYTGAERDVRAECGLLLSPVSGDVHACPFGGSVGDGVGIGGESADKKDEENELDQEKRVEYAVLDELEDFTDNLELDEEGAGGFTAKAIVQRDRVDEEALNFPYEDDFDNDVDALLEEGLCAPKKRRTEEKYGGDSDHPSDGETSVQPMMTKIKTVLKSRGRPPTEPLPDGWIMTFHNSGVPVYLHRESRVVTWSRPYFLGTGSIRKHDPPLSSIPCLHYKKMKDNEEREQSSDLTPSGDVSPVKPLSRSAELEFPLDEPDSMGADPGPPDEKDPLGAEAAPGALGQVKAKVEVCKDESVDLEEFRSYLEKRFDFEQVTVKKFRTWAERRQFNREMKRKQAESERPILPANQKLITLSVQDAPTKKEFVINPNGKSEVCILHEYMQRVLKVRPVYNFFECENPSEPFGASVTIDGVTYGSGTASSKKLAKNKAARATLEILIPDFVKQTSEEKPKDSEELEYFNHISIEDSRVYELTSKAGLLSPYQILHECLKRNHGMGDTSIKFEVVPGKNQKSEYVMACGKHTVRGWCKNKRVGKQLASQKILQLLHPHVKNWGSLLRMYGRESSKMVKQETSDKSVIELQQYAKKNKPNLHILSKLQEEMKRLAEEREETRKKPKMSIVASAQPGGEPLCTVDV
UniProt P17844: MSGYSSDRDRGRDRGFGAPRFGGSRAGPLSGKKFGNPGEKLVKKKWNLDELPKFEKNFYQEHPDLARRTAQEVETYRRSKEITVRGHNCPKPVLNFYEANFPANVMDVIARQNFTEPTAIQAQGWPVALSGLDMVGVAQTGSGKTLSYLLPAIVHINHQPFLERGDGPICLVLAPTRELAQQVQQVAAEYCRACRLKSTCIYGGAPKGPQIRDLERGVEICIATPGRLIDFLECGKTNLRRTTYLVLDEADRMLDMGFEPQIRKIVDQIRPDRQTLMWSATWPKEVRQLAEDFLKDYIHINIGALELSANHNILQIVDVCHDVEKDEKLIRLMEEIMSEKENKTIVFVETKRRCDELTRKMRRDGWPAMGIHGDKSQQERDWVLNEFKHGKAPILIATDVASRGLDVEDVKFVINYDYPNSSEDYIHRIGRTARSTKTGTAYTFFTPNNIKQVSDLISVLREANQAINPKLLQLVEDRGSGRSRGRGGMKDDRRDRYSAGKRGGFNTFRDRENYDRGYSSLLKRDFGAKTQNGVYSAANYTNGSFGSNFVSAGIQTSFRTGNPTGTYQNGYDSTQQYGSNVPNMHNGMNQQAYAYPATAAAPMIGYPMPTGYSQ
UniProt Q15797, 1-219: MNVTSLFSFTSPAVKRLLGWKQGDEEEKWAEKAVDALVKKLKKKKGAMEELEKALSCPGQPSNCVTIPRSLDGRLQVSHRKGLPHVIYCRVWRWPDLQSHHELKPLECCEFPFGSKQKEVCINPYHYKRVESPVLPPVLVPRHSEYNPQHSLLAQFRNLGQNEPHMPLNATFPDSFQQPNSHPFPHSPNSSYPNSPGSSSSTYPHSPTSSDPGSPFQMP
UniProt Q15796, whole entry: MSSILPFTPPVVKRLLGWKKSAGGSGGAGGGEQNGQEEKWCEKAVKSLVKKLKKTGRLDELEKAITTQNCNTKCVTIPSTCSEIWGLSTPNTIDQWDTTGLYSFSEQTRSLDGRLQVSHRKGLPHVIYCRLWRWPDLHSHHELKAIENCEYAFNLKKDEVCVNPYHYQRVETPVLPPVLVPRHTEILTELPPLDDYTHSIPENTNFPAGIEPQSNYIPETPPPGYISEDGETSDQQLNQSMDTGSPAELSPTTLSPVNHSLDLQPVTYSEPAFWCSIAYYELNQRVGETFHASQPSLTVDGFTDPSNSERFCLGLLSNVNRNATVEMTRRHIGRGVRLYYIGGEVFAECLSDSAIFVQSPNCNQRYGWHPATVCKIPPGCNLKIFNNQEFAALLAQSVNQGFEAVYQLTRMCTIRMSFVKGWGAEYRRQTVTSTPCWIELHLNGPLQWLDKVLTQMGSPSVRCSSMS
UniProt P84022: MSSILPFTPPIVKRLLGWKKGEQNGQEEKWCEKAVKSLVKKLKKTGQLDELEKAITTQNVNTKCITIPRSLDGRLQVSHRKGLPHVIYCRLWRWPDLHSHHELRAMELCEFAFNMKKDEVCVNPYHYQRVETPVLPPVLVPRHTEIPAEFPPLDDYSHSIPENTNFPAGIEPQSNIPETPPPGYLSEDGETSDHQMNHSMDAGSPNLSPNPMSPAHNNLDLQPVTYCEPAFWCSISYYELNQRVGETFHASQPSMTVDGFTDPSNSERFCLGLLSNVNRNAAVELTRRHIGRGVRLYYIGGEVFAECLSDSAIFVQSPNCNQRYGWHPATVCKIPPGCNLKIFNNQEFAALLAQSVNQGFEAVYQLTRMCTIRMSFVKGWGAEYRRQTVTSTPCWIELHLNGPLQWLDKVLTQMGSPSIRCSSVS
Smad1/Smad5 endogenous (Homo sapiens), one chain, as listed by the source, chain 2 of 2: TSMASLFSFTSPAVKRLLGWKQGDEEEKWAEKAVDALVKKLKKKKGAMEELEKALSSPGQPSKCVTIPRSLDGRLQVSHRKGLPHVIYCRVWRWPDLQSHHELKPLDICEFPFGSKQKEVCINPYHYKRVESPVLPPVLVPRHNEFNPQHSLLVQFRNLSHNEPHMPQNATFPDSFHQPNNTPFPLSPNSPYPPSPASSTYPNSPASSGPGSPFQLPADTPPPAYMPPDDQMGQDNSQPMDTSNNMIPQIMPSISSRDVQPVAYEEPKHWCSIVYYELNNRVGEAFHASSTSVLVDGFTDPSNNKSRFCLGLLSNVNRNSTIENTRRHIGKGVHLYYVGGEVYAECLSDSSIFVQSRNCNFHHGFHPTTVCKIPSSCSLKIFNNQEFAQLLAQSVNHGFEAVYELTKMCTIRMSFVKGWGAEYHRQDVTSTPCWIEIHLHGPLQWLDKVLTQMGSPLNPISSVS
Smad1/Smad5 endogenous (Homo sapiens), one chain, as listed by the source, chain 1 of 2: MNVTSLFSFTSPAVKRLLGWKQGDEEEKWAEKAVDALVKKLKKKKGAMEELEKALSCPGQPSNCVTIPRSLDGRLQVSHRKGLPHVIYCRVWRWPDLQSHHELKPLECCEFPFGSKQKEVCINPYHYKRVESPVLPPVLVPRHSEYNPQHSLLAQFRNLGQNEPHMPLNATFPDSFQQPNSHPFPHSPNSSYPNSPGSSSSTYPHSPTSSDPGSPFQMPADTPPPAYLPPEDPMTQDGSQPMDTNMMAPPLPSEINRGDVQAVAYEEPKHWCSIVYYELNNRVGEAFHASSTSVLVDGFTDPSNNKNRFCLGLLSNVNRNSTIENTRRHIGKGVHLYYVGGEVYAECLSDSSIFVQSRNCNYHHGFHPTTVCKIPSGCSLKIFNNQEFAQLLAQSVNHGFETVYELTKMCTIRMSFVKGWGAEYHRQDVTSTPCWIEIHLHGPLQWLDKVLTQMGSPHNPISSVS
Smad2/Smad3 endogenous (Homo sapiens), one chain, as listed by the source, chain 1 of 2: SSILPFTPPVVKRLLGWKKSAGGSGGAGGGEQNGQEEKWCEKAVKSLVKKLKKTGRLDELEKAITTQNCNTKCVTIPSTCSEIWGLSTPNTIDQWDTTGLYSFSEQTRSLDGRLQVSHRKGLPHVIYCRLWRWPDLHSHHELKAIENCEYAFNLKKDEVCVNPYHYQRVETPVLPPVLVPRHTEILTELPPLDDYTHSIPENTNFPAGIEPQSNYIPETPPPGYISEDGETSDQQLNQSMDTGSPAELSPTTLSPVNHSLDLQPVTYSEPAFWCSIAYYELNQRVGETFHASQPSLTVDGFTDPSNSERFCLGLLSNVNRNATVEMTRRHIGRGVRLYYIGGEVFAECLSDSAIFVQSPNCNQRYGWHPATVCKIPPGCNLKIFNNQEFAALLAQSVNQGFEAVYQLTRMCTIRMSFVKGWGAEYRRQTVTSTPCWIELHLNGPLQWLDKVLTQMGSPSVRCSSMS
Smad2/Smad3 endogenous (Homo sapiens), one chain, as listed by the source, chain 2 of 2: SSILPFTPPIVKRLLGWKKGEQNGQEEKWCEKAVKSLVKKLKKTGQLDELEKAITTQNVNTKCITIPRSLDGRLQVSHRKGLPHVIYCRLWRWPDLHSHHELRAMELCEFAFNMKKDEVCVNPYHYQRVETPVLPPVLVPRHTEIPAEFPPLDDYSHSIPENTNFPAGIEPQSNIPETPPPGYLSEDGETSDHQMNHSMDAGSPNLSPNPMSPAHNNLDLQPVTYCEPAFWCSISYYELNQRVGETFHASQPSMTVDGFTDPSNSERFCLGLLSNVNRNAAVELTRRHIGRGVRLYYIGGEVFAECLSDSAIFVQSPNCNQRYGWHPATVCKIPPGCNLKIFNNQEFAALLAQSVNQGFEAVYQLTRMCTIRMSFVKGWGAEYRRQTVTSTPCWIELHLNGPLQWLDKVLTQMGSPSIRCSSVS

Tests used:
[1] = tested on: Smad1/Smad5 endogenous (Homo sapiens); assay: binding assay; conditions: RNA-ChIP, protein in cells, protein details: PASMC
[2] = target: DGCR8 endogenous (Homo sapiens) (UniProt Q8WYQ5); assay: binding assay; conditions: RNA-IP, BMP4; protein in cells; protein details: PASMC
[3] = tested on: Smad2/Smad3 endogenous (Homo sapiens); assay: binding assay; conditions: RNA-ChIP, protein in cells, protein details: PASMC
[4] = target: p68 (DDX5) endogenous (Homo sapiens) (UniProt P17844); assay: binding assay; conditions: RNA-ChIP, constitutive; protein in cells; protein details: PASMC
[5] = target: T1, Drosha endogenous (Homo sapiens) (UniProt Q9NRR4); assay: binding assay; conditions: RNA-ChIP, protein in cells, protein details: PASMC
T1 sequence (looked up, limits assumed): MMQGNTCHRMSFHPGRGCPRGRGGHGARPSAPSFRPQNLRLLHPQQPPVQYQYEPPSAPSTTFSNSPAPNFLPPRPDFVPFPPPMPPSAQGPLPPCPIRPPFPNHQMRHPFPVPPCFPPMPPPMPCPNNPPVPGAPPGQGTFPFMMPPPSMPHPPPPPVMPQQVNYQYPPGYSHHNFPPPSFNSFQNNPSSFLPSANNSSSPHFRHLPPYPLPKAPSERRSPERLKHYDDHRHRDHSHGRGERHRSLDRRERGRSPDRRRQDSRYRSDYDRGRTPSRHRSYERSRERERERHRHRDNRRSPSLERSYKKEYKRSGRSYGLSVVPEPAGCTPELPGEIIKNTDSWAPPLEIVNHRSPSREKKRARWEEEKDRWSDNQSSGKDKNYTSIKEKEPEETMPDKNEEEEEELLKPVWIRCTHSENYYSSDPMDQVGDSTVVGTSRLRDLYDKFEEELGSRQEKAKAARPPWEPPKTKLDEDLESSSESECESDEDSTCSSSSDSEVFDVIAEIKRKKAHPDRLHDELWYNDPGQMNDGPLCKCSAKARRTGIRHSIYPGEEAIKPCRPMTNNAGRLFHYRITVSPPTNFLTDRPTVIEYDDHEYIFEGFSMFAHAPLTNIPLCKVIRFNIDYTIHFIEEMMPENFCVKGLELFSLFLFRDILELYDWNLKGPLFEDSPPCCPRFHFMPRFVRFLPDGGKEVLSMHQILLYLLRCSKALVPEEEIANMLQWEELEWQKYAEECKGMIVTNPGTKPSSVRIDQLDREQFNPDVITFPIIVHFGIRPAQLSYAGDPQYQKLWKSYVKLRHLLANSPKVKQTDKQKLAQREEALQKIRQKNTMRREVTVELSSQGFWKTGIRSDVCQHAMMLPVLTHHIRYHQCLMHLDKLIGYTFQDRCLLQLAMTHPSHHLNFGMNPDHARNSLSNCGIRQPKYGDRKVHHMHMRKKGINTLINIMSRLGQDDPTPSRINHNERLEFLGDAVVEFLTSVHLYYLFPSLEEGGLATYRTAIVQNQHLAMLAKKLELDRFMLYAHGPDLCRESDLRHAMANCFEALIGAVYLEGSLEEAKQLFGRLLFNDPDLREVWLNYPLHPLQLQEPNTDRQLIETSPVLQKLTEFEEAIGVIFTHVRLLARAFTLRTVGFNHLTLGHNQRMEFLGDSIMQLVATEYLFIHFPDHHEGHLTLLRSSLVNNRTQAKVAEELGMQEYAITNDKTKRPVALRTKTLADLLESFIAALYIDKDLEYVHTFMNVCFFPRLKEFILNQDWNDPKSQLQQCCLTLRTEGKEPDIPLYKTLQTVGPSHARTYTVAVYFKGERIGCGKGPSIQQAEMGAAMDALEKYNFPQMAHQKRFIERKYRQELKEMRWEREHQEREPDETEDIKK

[6] = tested on: Smad1 (nuclear extract); assay: competition with a labelled probe; conditions: competes for Smad1 binding to pri-miR-21, 3-30 fold excess; protein in an extract; protein details: Cos7 nuclear extract, BMP4 treated
[7] = target: Smad1 MH1 domain (UniProt Q15797); assay: pull-down; conditions: dramatic decrease; purified recombinant protein; protein details: GST fusion, E. coli
[8] = target: T2, Drosha (Homo sapiens) (UniProt Q9NRR4); assay: binding assay; conditions: RNA-IP, protein in cells, protein details: Flag, Cos7
T2 sequence (looked up, limits assumed): T1 sequence (looked up, limits assumed)

[9] = target: DGCR8 (UniProt Q8WYQ5); assay: binding assay; conditions: RNA-IP, protein in cells, protein details: Flag, Cos7
[10] = target: Smad1 (UniProt Q15797); assay: binding assay; conditions: RNA-IP, BMP4; protein in cells; protein details: Flag, Cos7
[11] = tested on: Smad1 (nuclear extract); assay: pull-down; conditions: protein in an extract, protein details: Cos7 nuclear extract, BMP4 treated
[12] = tested on: p68 (DDX5); assay: pull-down; conditions: protein in an extract, protein details: Cos7 nuclear extract, BMP4 treated
[13] = target: Smad2 (UniProt Q15796); assay: binding assay; conditions: RNA-ChIP; induced by TGFb, not BMP4; protein in cells; protein details: Flag, Cos7
[14] = target: Smad3 (UniProt P84022); assay: binding assay; conditions: RNA-ChIP; induced by TGFb, not BMP4; protein in cells; protein details: Flag, Cos7

## GCCAACCCAGUGUUCAGACUACCUGUUCAGGAGGCUCUCAAUGUGUACAGUAGUCUGCACAUUGGUUAGGC [pri-miR-199a]
[1]; BMP4
  binding result: binds
[2]
  binding result: binds
[3]; TGFb
  binding result: binds
[4]
  binding result: binds
[5]; ligand enhanced
  binding result: binds

## GGCCUGGCUGGACAGAGUUGUCAUGUGUCUGCCUGUCUACACUUGCUGUGCAGAACAUCCGCUCACCUGUACAGCAGGCACAGACAGGCAGUCACAUGACAACCCAGCCU [pri-miR-214]
[1]
  binding result: no binding
[3]
  binding result: no binding
[4]
  binding result: binds
[5]; constitutive
  binding result: binds

## GTATCAGATCTGTGAA (double strand) [SBE1 DNA duplex]
[6]
  binding result: binds

## GTATGTCTAGACTGAA (double strand) [SBE2 DNA duplex]
[6]
  binding result: binds

## UGUCGGGUAGCUUAUAAAACUGAUGUUGACUGUUGAAUCUCAUGGCAACACCAGUCGAUGGGCUGUCUGACA [pri-miR-21 R-SBE M1]
[7]
  binding result: binds more weakly
[8]; no BMP4-dependent recruitment
  binding result: binds more weakly
[9]; no BMP4-dependent recruitment
  binding result: binds more weakly
[10]
  binding result: binds more weakly

## UGUCGGGUAGCUUAUAAAACUGAUGUUGACUGUUGAAUCUCAUGGCAACACCAGUUUAUGGGCUGUCUGACA [pri-miR-21 R-SBE M3]
[11]
  binding result: no binding
[12]; R-SBE not required
  binding result: binds

## UGUCGGGUAGCUUAUCAGACUGAUGUUGACUGUUGAAUCUCAUGGCAACACCAGUCGAUGGGCUGUCUGACA [pri-miR-21 WT (156 nt; hairpin sequence given)]
[11]; immobilized RNA, immunoblot
  binding result: binds
[12]
  binding result: binds
[8]; BMP4-dependent
  binding result: binds
[9]; BMP4-dependent
  binding result: binds
[10]
  binding result: binds

## UGUCGGGUAGCUUAUCAGACUGAUGUUGACUGUUGAAUCUCAUGGCAACACCAGUCGAUGGGCUGUCUGACA [pri-miR-21 from pCMV-miR-21 (480 nt; hairpin sequence given)]
[13]
  binding result: binds
[14]
  binding result: binds

## UGUCGGGUAGCUUAUCAGACUGAUGUUGACUGUUGAAUCUCAUGGCAACACCUAACGAUGGGCUGUCUGACA [pri-miR-21 R-SBE M2]
[7]
  binding result: binds more weakly

## UGUCGGGUAGCUUAUCAGACUGAUGUUGACUGUUGACCAUCAUGGCAACACCAGUCGAUGGGCUGUCUGACA [pri-miR-21 Loop mut]
[11]
  binding result: binds
[12]
  binding result: binds
[8]; BMP4-dependent
  binding result: binds
[9]; BMP4-dependent
  binding result: binds
[10]
  binding result: binds

## UGUCGGGUUAAUUAUCAGACUGAUGUUGACUGUUGAAUCUCAUGGCAACACCAGUCGAUGGGCUGUCUGACA [pri-miR-21 5' mut]
[11]
  binding result: binds
[12]
  binding result: binds
[10]
  binding result: binds
